# Results as given in patent US20090019042A1, “Method Of Screening Compound Regulating The Translation Of Specific mRNA” (Takeda Pharmaceutical Company Limited, priority 2004, published 2009).
# For at least one compound, name, drawing or mass did not settle the structure.
# Key:
# Suv SL1.4 = test: RNA FRET method; assay type: binding, human; settings: 3, 10, 30, and 100 μM, N=3, 67° C.
# TS SL1.1 = test: RNA FRET method; assay type: binding; settings: concentration dependency test
smiles,measurement,setting,value
NC[C@H]1O[C@H](O[C@H]2[C@H](O)[C@@H](O[C@H]3O[C@H](CO)[C@@H](O)[C@H](N)[C@H]3O)[C@H](N)C[C@@H]2N)[C@H](O)[C@@H](O)[C@@H]1O [Kanamycin],"stabilization of RNA secondary structure (FRET, FITC value)",Suv SL1.4,selectively stabilized Suv SL1.4
same,stabilization of Suv SL1.4 compared with TS SL1.1,TS SL1.1,Suv SL1.4 became stabilized at lower concentrations of Kanamycin than TS SL1.1
